Assay results taken from PubChem BioAssay AID1671190 (National Center for Advancing Translational Sciences (NCATS), 2021).
The campaign covered roughly 580,000 compounds. About 6,100 (1.1%) were called active. The shares of active, inactive and inconclusive entries below differ from those in the screen. The call rests on the fitted dose curve; in most records, active means well fitted inhibition curve with a large enough effect; inconclusive means small, poorly fitted or top-dose-only effect, or another doubt; inactive means no such curve, though single readings can be large or run the other way. Where the call is inconclusive, the potency comes from a doubtful curve fit.

Chains of the proteins cited; added tags and fusions are not shown. Lines headed by an entry give the natural chain unless they say otherwise; changes in a name come on top.
UniProt P18054: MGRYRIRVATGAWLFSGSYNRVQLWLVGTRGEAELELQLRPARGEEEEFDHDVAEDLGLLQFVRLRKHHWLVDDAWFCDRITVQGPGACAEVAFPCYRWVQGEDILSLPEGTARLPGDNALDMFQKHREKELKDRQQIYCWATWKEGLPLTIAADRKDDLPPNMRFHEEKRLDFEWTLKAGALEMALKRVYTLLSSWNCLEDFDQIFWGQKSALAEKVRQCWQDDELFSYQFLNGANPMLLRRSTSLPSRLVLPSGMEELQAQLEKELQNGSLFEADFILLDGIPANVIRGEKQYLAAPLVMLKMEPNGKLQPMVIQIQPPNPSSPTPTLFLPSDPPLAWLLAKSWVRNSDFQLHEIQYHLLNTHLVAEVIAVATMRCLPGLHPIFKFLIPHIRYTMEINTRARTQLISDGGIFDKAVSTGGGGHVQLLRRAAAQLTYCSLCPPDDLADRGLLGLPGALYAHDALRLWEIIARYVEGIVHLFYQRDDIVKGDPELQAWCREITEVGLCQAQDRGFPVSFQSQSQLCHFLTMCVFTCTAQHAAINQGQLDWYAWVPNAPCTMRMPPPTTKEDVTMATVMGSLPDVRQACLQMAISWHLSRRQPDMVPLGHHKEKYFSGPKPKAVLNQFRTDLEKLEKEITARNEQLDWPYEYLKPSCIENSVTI

Biological target: Polyunsaturated fatty acid lipoxygenase ALOX12 (Homo sapiens) (UniProt P18054)
Assay: Primary qHTS assay for inhibitors of human arachidonate 12S-lipoxygenase (ALOX12): Round 2
Details: purified 12hLO, xylenol orange hydroperoxide absorbance; series mostly up to 108 µM
How it was run: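 Purified human 12hLO (150 nM final) in 25 mM Hepes, 0.01% Triton X-100, pH 7.0 was preincubated 15 min at room temperature with compound. Then 40 uM arachidonic acid was added, 30 min. Hydroperoxide was read by Fe-XO absorbance ratio 573/405 nm.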
Potency means the concentration at half of the fitted maximal effect.

| SMILES | Potency |
| --- | --- |
| O=C(C[C@@H]1O[C@H](CNS(=O)(=O)c2ccccc2)[C@@H](O)[C@H]1O)N1CCN(c2ccccc2)CC1 | inactive |
| CC(C)N(C(=O)COC(=O)c1ccccc1C(=O)c1ccc(Cl)c([N+](=O)[O-])c1)C(C)C | inactive |
| COc1cccc(OC)c1C(=O)Nc1ccc2c(c1)N(C(C)=O)CCC2 | inactive |
| COc1ccc(-c2nc(NC(=O)c3ccc(OCC(=O)Nc4ccc(F)cc4)c(OC)c3)sc2C)cc1 | inactive |
| COc1ccccc1NC(=O)N1CCC(C(=O)c2ccc(F)cc2)CC1 | inactive |
| CCCCCCN1C(=O)CC(NC(=O)OCC2c3ccccc3-c3ccccc32)C/C=C\C1C(C)C (stereo unspecified) | inconclusive: 100 µM [inhibitor, single point] |
| O=C(Nc1cccc(S(=O)(=O)N2CCOCC2)c1)c1cc(=O)[nH]c2ccccc12 | inconclusive: 141 µM [inhibitor, single point] |
| CCOc1ccccc1Oc1c(C)oc2cc(OS(C)(=O)=O)ccc2c1=O | inconclusive: 39.8 µM [inhibitor, single point] |
| COc1cccc(C(=O)N2CCC3(CC2)NC(=O)N(Cc2ccccc2)C3=O)c1OC | inactive |
| O=Cc1c(N2CCN(CCO)CC2)nc2ccccn2c1=O | inconclusive: 112 µM [inhibitor, single point] |
| O=C1CC(c2ccc(Cl)cc2)Sc2nc(-c3ccc(F)cc3)nn21 (stereo unspecified) | inconclusive: 35.5 µM [inhibitor, partial curve, poor fit] |
| CCC(C)NC(=O)C1CCCN(S(=O)(=O)c2ccc3c(c2)CC(C)N3C(=O)C2CC2)C1 (stereo unspecified) | inconclusive: 126 µM [inhibitor, single point] |
| COc1cccc(NC(=S)N(CCc2c(C)[nH]c3ccc(C)cc23)Cc2cccs2)c1 | inconclusive: 44.7 µM [inhibitor, partial curve, poor fit] |
| CC(C)(C)c1ccc(C(=O)CCCN2CCC(OC(c3ccccc3)c3ccccc3)CC2)cc1 | inconclusive: 100 µM [inhibitor, single point] |
| COCCCNC(=O)CSc1nc(-c2ccccc2)[nH]c1-c1ccc(C)cc1 | inconclusive: 141 µM [inhibitor, single point] |
| COc1ccc(N2CCN(CC(=O)Nc3cccc(S(=O)(=O)N4CCOCC4)c3)CC2)cc1 | inconclusive: 0.891 µM [inhibitor, full curve, poor fit] |
| O=C(c1nc(-c2ccc(F)cc2)c2cnccn12)N1CCOCC1 | inconclusive: 15.8 µM [inhibitor, full curve] |
| Cn1c(SCC(=O)NCCc2ccccc2)nnc1-c1ccco1 | inactive |
| CCCCc1nc(SCC(=O)Nc2ccc(OC)cc2)c2c3c(sc2n1)COC(C)(C)C3 | inconclusive: 100 µM [inhibitor, partial curve, poor fit] |
| Cc1c(O)cc2c(c1O)C(=O)CC(c1ccccc1)O2 (stereo unspecified) | inconclusive: 63.1 µM [inhibitor, partial curve, poor fit] |
| NC(=O)NC(=O)COC(=O)CCCc1c[nH]c2ccccc12 | inconclusive: 31.6 µM [inhibitor, partial curve, poor fit] |

Quoted from the entries so far, 2 compounds:

| SMILES | Potency |
| --- | --- |
| CC(C)(C)c1ccc(C(=O)CCCN2CCC(OC(c3ccccc3)c3ccccc3)CC2)cc1 | inconclusive: 100 µM [inhibitor, single point] |
| COCCCNC(=O)CSc1nc(-c2ccccc2)[nH]c1-c1ccc(C)cc1 | inconclusive: 141 µM [inhibitor, single point] |

Next part.

| SMILES | Potency |
| --- | --- |
| CCOC(=O)C1=CC2(CC)CCCN3CCc4c(n1c1ccccc41)C32 (stereo unspecified) | inconclusive: 141 µM [inhibitor, single point] |
| C[C@@H]1CN([C@H](C)CO)C(=O)c2cc(C#CC3CCCCC3)cnc2O[C@H]1CN(C)Cc1cccnc1 | inconclusive: 25.1 µM [inhibitor, partial curve, poor fit] |
| CCOC(=O)C1Oc2ccccc2C(c2ccc(C)cc2)=C1C(=O)OC (stereo unspecified) | inconclusive: 89.1 µM [inhibitor, single point] |
| Cc1cc(O)c(C(C)C)cc1C1(c2cc(C(C)C)c(O)cc2C)OC(=O)c2ccccc21 | inconclusive: 28.2 µM [inhibitor, partial curve, poor fit] |
| COc1cccc(C(=O)C(Cl)C(=O)c2cccc(OC)c2)c1 | inconclusive: 35.5 µM [inhibitor, partial curve, poor fit] |
| COC(=O)c1cc(S(=O)(=O)Nc2cccc(OC)c2)cn1C | inactive |
| Cc1nn(C(C)C(=O)N2CCCCC2)c(=O)c2c1sc1ccccc12 (stereo unspecified) | inactive |
| CC(C)CN1C(=O)N(c2ccc(Cl)cc2)C(C)(O)CC1(C)C (stereo unspecified) | inconclusive: 1.26 µM [inhibitor, partial curve, poor fit] |
| COc1ccc(Br)cc1/C=N/NC(=O)c1ccc(COc2ccc3c(c2)CCC3)o1 | inactive |
| COc1cccc(NC(=O)C(=O)c2c(C)[nH]c3ccccc23)c1 | inconclusive: 112 µM [inhibitor, single point] |
| Nc1nonc1C(=O)N/N=C/c1ccc(Br)o1 | inactive |
| CC(CNc1ccccc1O)C(=O)O (stereo unspecified) | inconclusive: 44.7 µM [inhibitor, partial curve, poor fit] |
| O=C(c1ccc2[nH]ncc2c1)N1CCOCC12CCN(CCCc1ccccc1)CC2 | inactive |
| COc1ccc2ccccc2c1/C=C(/C#N)C(=O)Nc1ccccc1C(F)(F)F | inconclusive: 1.78 µM [inhibitor, full curve, poor fit] |
| Cn1c(CN2CCCCC2)nc2cc(NC(=O)c3ccc(F)cc3)ccc21 | inactive |
| CC(=O)NC(c1ccccc1)c1nc(-c2ccc3ccccc3c2)cs1 (stereo unspecified) | inconclusive: 89.1 µM [inhibitor, single point] |
| COc1ccccc1Oc1c(C)oc2cc(OCC(=O)Nc3cccc(O)c3)ccc2c1=O | inconclusive: 89.1 µM [inhibitor, single point] |
| CCN(CC)S(=O)(=O)c1ccc(C(=O)NCc2n[nH]c(=S)n2-c2ccc(Cl)c(Cl)c2)cc1 | inconclusive: 44.7 µM [inhibitor, partial curve, poor fit] |
| CC[C@]12c3[nH]c4cc(-c5ccco5)ccc4c3CCN1C(=O)[C@@H](CC(=O)NCc1cccc(C(F)(F)F)c1)C[C@@H]2C(=O)N1CCN(C(=O)c2ccco2)CC1 | inconclusive: 50.1 µM [inhibitor, single point] |
| CCNC(=S)Nc1cc(Cl)ccc1Oc1ccccc1 | inconclusive: 44.7 µM [inhibitor, partial curve] |
